Test results: publication PMC12040169 (PLOS Biology, 2025)
Some of the results follow.

These compounds were tested on T1, CTL2-GFP (C. trachomatis L2/434/Bu, GFP-expressing). Conditions: bulk GFP, single well; 28.5 h, 10 µM; inhibitor.
T1 construct: L2/434/Bu, GFP-expressing
Parameters: species or system HeLa; Intracellular C. trachomatis growth in HeLa cells, bulk GFP fluorescence relative to DMSO

| Structure (SMILES) | % of control remaining [%] |
| --- | --- |
| N#Cc1ccc(OCC(=O)Nc2cccnc2-n2cncn2)cc1 [CBK306004] | 163.978 |
| COc1ccccc1NC(=O)NCCC1SC(NC2CCCCCC2)=NC1=O (stereo not shown) [CBK067473] | 111.519 |
| O=S(=O)(NCc1cccc(F)c1F)c1cc2c(N3CCNCC3)nccc2s1 [CBK047588C] | 99.6666 |
| c1csc(-c2nn3c(Cn4nnc5ccccc54)nnc3s2)c1 [CBK268204] | 128.435 |
| COc1ccc(CCCC(=O)NCc2ccc(OC3CCNCC3)cc2)cc1OC [CBK028428T] | 101.114 |
| COCCc1noc(CC2CCN(c3ncc(C#N)cc3F)CC2)n1 [CBK304153] | 92.2402 |
| CC(Cc1ccsc1)NS(=O)(=O)c1cccc(C(=O)N2CCCC2)c1 (stereo not shown) [CBK306923] | 141.034 |
| O=C(NC(C(=O)N/N=C/c1cccs1)c1n[nH]c(=O)c2ccccc12)c1ccccc1 (stereo not shown) [CBK261250] | 89.7075 |
| Nc1ncc(-c2cc(C(F)(F)F)cc(C(F)(F)F)c2)nc1NCCCO [CBK063546] | 141.391 |
| CC1=NC2c3ccsc3C=CC2S1 (stereo not shown) [CBK008720] | 112.156 |
| CC(=O)NCC(=O)Nc1cnc(-c2cccc(C(F)(F)F)c2)c(-c2cccnc2)n1 [CBK036809] | 113.944 |
| CCC1CCCCN1C(=O)c1cc2ccccc2s1 (stereo not shown) [CBK074211] | 163.734 |
| Cc1ccc(S(=O)(=O)Nc2ccccc2CNc2ccccn2)cc1 [CBK264198] | 102.095 |
| Cc1cc2nc3c(nc2cc1C)CCNCC3 [CBK012302] | 105.605 |
| COc1cc(/C=C2/SC(=S)N(CCC(=O)N3CCN(C)CC3)C2=O)cc(OC)c1OC [CBK263656] | 116.358 |
| COc1ccc(C(C)C)cc1-c1cn2ccnc2c(Nc2ccc(N3CCOCC3)cc2)n1 [CBK037338] | 135.272 |
| Cn1c(=O)n(CC(=O)NCc2ccc(F)cc2)c2cccnc21 [CBK283908] | 109.591 |
| CCn1c2cc(C)sc2c2cnn(CCN3CCCC3)c(=O)c21 [CBK284151] | 124.791 |
| Cc1ccc(C2=CCN(CC(=O)NCc3ccco3)CC2)o1 [CBK283632] | 82.1941 |
| Cc1ccc(CNC(=O)COc2ccc(S(=O)(=O)N3CCOCC3)cc2)cc1 [CBK269816] | 124.3 |
| CCCCc1ccc(-c2nc(NC(=O)NCC)cc3cccnc23)cc1 [CBK081231] | 83.5298 |
| CCc1ccc(OCc2nnc(SCC(=O)NCCCC(=O)O)n2CC(C)C)cc1 [CBK295321] | 153.562 |
| O=C(O)c1cccc(Cn2c(C3CC3)n[nH]c2=S)c1 [CBK288401] | 132.286 |
| CCOC(=O)CCSc1c(CC)c(C)nc2ccccc12 [CBK153457T] | 107.215 |
| CCn1cc(Cl)c(C(=O)NC2CCN(c3nc(C)cc(=O)[nH]3)CC2)n1 [CBK304614] | 102.1 |
| FC(F)(F)c1nc2ccccc2nc1Sc1ccccn1 [CBK093781] | 103.477 |

| Structure (SMILES) | % of control remaining [%] |
| --- | --- |
| Cn1ccnc1C1(O)CCN(C(=O)c2ccc(F)cc2)CC1 [CBK283541] | 91.9993 |
| Cc1noc(COc2ccc(OCc3nc(C)no3)cc2)n1 [CBK261364] | 100 |
| O=C(O)COCC(=O)N[C@H]1CCN2C(=O)c3ccc(Cl)cc3NC(=O)[C@H]12 [CBK289342] | 118.242 |
| CC(=O)Nc1ccc(S(=O)(=O)Nc2ccc(-c3csc(C)n3)cc2)cc1 [CBK266261] | 147.423 |
| Cc1ccc(OCc2cccc3nsnc23)cc1[N+](=O)[O-] [CBK266063] | 142.14 |
| Cc1oc(-c2ccccc2)cc1C(=O)Nc1ccccc1N1CCCNCC1 [CBK038940T] | 123.565 |
| c1cncc(C(N2CCOCC2)N2CCOCC2)c1 [CBK260999] | 116.372 |
| CCCCNC(=O)CCn1c(=O)[nH]c2ccccc2c1=O [CBK287824] | 117.95 |
| O=C(OCc1csc2ccc(Cl)cc12)N1CCOCC1 [CBK200164] | 106.378 |
| COc1ccc(C(C)C)cc1-c1nccnc1NCc1ccco1 [CBK036672] | 185.371 |
| Cc1nn(C)c(C)c1-c1ccc(=O)n(Cc2ccc(F)cc2)n1 [CBK282258] | 106.859 |
| COc1cccc2c(O)cnnc12 [CBK026139] | 117.688 |
| Cc1cc(C(=O)O)ccc1-c1ccc(/C=N/n2cnnc2)o1 [CBK264713] | 120.706 |
| CC1CN(S(=O)(=O)c2ccc3c(c2)C(=O)c2cc(S(=O)(=O)N4CC(C)OC(C)C4)ccc2-3)CC(C)O1 (stereo not shown) [CBK263355] | 100 |
| O=C(O)CCC(=O)N1CCN(c2ccc(C(=O)c3ccc(F)cc3)cc2)CC1 [CBK269119] | 108.842 |
| COc1ccc([N+](=O)[O-])cc1NC(=O)C1C2CCC(C2=C(C)C)C1C(=O)O (stereo not shown) [CBK263686] | 103.683 |
| O=C(c1cccc(Cn2cccn2)c1)N1CCc2sccc2C1c1ccccc1 (stereo not shown) [CBK285552] | 105.024 |
| COc1cccc(/C=N/NC(=O)CSc2nnc(C)n2-c2ccccc2)c1O [CBK262758] | 100 |
| Clc1ccc(SCCN2CCOCC2)cc1 [CBK265055G] | 113.934 |
| Cc1ccc2c(c1)C(=O)NCC1(CCN(C(=O)c3ccco3)CC1)O2 [CBK282894] | 125.541 |
| COc1cc(NC(=O)N2CCNC(=O)C2)cc(OC)c1OC [CBK155875] | 91.9628 |
| CC(C)n1c(=O)n(CC(=O)N2CCCCCC2)c2cccnc21 [CBK283527] | 140.407 |
| Cc1ccc2[nH]c3c(c2c1)CCNC31CCN(C(=O)Nc2c(C)noc2C)CC1 [CBK047071] | 127.496 |
| CCc1ccc2c(c1)C(CCNC(=O)CCc1ccsc1)C(=O)N2 (stereo not shown) [CBK305063] | 101.593 |
| O=C(O)CC(Cc1ccccc1)c1ccc(Cl)cc1 (stereo not shown) [CBK270231] | 140.513 |
| COCCn1c(SCc2cn3ccccc3c2C#N)nc(C)c1C [CBK306282] | 97.564 |

Reformatted bar-delimited: entries from further up.
Structure (SMILES) | % of control remaining [%]
CCCCc1ccc(-c2nc(NC(=O)NCC)cc3cccnc23)cc1 [CBK081231] | 83.5298
CCc1ccc(OCc2nnc(SCC(=O)NCCCC(=O)O)n2CC(C)C)cc1 [CBK295321] | 153.562
